Data as given in PubChem BioAssay AID1259308 (NCATS, 2017)
Shown is an unselected part of about 59,000 reagents tested. About 1,510 of them (2.6%) were called active. 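Calls use total luciferase alone and ignore viability, so some active siRNAs may act by altering cell number.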 Entries without a mark were called inactive. The numbers tell different reagents against one gene apart.

Assay: 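Knock-downs that increase output of a recombinant reporter protein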 (primary screen)
Cell system: human HEK293 embryonic kidney cells stably expressing firefly luciferase (HEK-CMV-Luc2-Hygro)
Knock-down reagent: single siRNA against human genes, 0.8 pmol siRNA per well
Time to read-out: 72 h
Measurement: 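Reporter luminescence and viable-cell signal on separate replicate plates, given as percent of non-targeting control and median/MAD z-scores, plus per-cell luciferase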
Scale: total luciferase, z-score and total luciferase, % of control: higher = more reporter protein produced; luciferase per cell, z-score: higher = more reporter output per viable cell; viable cells, % of control: higher = more viable cells
Active means: 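An siRNA counts as active if its total luciferase robust z-score exceeds 3; genes with two or more such siRNAs out of three were retested with fresh siRNAs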
Calls: active = raised luciferase; inactive = no rise

gene	reagent	total luciferase, z-score	total luciferase, % of control	luciferase per cell, z-score	viable cells, % of control
CCL16 (C-C motif chemokine ligand 16)	1	0.88	99.4	0.332	102
CCL16 (C-C motif chemokine ligand 16)	2	0.289	87.6	-0.769	120
CCL16 (C-C motif chemokine ligand 16)	3	-1.11	59.8	-1.47	98.4
NECTIN4 (nectin cell adhesion molecule 4)	1	-0.255	76.8	-0.253	91.7
NECTIN4 (nectin cell adhesion molecule 4)	2	-1.31	55.8	-0.109	64.1
NECTIN4 (nectin cell adhesion molecule 4)	3	0.443	90.7	2.12	58
FBXO48 (F-box protein 48)	1	1.76	117	2.03	76.5
FBXO48 (F-box protein 48)	2	0.23	86.5	-0.0381	97.6
FBXO48 (F-box protein 48)	3	0.911	100	0.633	94.6
KY (kyphoscoliosis peptidase)	1	0.51	92	0.241	96.5
KY (kyphoscoliosis peptidase)	2	-0.838	65.2	-1.18	99.5
KY (kyphoscoliosis peptidase)	3	1.03	102	-0.0409	116
SSTR4 (somatostatin receptor 4)	1	4.39 (active)	169	2.44	99.5
SSTR4 (somatostatin receptor 4)	2	0.695	95.7	0.741	88
SSTR4 (somatostatin receptor 4)	3	0.378	89.4	-0.119	103
PC (pyruvate carboxylase)	1	0.559	93	1.24	74.9
PC (pyruvate carboxylase)	2	1.14	105	1.57	77.3
PC (pyruvate carboxylase)	3	-0.199	77.9	-0.0144	87.4
RGS7BP (regulator of G protein signaling 7 binding protein)	1	-1.07	60.7	0.818	54.6
RGS7BP (regulator of G protein signaling 7 binding protein)	2	-1.49	52.3	-0.383	64.6
RGS7BP (regulator of G protein signaling 7 binding protein)	3	0.119	84.2	0.0103	93.9
TMEM150B (transmembrane protein 150B)	1	1.51	112	1.75	78.9
TMEM150B (transmembrane protein 150B)	2	-0.496	72	-0.113	82.9
TMEM150B (transmembrane protein 150B)	3	-0.596	70	-0.61	91.9
MOCS1 (molybdenum cofactor synthesis 1)	1	-0.901	64	-0.332	78
MOCS1 (molybdenum cofactor synthesis 1)	2	0.31	88	0.0419	97.3
MOCS1 (molybdenum cofactor synthesis 1)	3	0.0624	83.1	-0.232	98.8
OR10S1 (olfactory receptor family 10 subfamily S member 1)	1	0.0679	83.2	-0.453	105
OR10S1 (olfactory receptor family 10 subfamily S member 1)	2	2.82	138	1.91	93.2
OR10S1 (olfactory receptor family 10 subfamily S member 1)	3	-1.92	43.7	-0.19	51.4
ADGRB1 (adhesion G protein-coupled receptor B1)	1	0.804	97.9	1.76	68.8
ADGRB1 (adhesion G protein-coupled receptor B1)	2	-0.51	71.7	0.651	67.5
ADGRB1 (adhesion G protein-coupled receptor B1)	3	-1.32	55.6	-0.309	67.3
CWH43 (cell wall biogenesis 43 C-terminal homolog)	1	0.553	92.9	0.0987	101
CWH43 (cell wall biogenesis 43 C-terminal homolog)	2	-0.0184	81.5	-0.138	94.5
CWH43 (cell wall biogenesis 43 C-terminal homolog)	3	-0.214	77.6	-0.448	97.6
C8orf33 (chromosome 8 open reading frame 33)	1	-1.3	56	-1.24	86.8
C8orf33 (chromosome 8 open reading frame 33)	2	-0.581	70.3	-0.801	97
C8orf33 (chromosome 8 open reading frame 33)	3	-0.0539	80.8	-0.348	99
RNASEH1 (ribonuclease H1)	1	0.21	86.1	0.427	85.9
RNASEH1 (ribonuclease H1)	2	-0.272	76.5	-0.78	105
RNASEH1 (ribonuclease H1)	3	1.53	112	2.13	71.7
HSPD1 (heat shock protein family D (Hsp60) member 1)	1	-1.16	58.9	-0.041	66.5
HSPD1 (heat shock protein family D (Hsp60) member 1)	2	-0.255	76.8	-0.717	104
HSPD1 (heat shock protein family D (Hsp60) member 1)	3	-0.705	67.9	-0.806	93.8
UBE2E3 (ubiquitin conjugating enzyme E2 E3)	1	-0.589	70.2	-0.422	87.6
UBE2E3 (ubiquitin conjugating enzyme E2 E3)	2	-0.412	73.7	-0.0557	83.6
UBE2E3 (ubiquitin conjugating enzyme E2 E3)	3	-0.079	80.3	-0.822	111
ETV3L (ETS variant transcription factor 3 like)	1	-0.489	72.2	-0.949	104
ETV3L (ETS variant transcription factor 3 like)	2	-1.51	51.9	-2.09	101
ETV3L (ETS variant transcription factor 3 like)	3	1.05	103	0.142	111
RGL3 (ral guanine nucleotide dissociation stimulator like 3)	1	0.385	89.6	-0.139	104
RGL3 (ral guanine nucleotide dissociation stimulator like 3)	2	0.78	97.4	0.948	84.8
RGL3 (ral guanine nucleotide dissociation stimulator like 3)	3	1.23	106	1.18	87.2
CFAP44 (cilia and flagella associated protein 44)	1	-0.486	72.2	-0.629	95.3
CFAP44 (cilia and flagella associated protein 44)	2	-0.174	78.4	-0.73	106
CFAP44 (cilia and flagella associated protein 44)	3	1.01	102	1.16	83.9

In a second layout: 6 of the entries above
| gene | reagent | total luciferase, z-score | total luciferase, % of control | luciferase per cell, z-score | viable cells, % of control |
| --- | --- | --- | --- | --- | --- |
| FBXO48 (F-box protein 48) | 1 | 1.76 | 117 | 2.03 | 76.5 |
| FBXO48 (F-box protein 48) | 2 | 0.23 | 86.5 | -0.0381 | 97.6 |
| FBXO48 (F-box protein 48) | 3 | 0.911 | 100 | 0.633 | 94.6 |
| KY (kyphoscoliosis peptidase) | 1 | 0.51 | 92 | 0.241 | 96.5 |
| KY (kyphoscoliosis peptidase) | 2 | -0.838 | 65.2 | -1.18 | 99.5 |
| KY (kyphoscoliosis peptidase) | 3 | 1.03 | 102 | -0.0409 | 116 |
